Data as given in PubChem BioAssay AID1259308 (NCATS, 2017)
Screen: 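Genes whose loss raises luciferase production in HEK293 cells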 (primary screen). Cells: human HEK293 embryonic kidney cells stably expressing firefly luciferase (HEK-CMV-Luc2-Hygro). Reagent: single siRNA against human genes, 0.8 pmol siRNA per well. Timing: 72 h. Measured: 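Luciferase light (ONE-Glo) measured on one replicate plate set and viability (CellTiter-Glo) on the other, scaled to a negative control siRNA, with robust z-scores and luciferase per cell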. Reading the numbers: total luciferase, z-score and total luciferase, % of control: higher = more reporter protein produced; luciferase per cell, z-score: higher = more reporter output per viable cell; viable cells, % of control: higher = more viable cells. Hit rule: 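An siRNA counts as active if its total luciferase robust z-score exceeds 3; genes with two or more such siRNAs out of three were retested with fresh siRNAs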. Calls: active = raised luciferase; inactive = no rise.
Shown is a random part of about 59,000 reagents. Over the whole deposit, about 1,510 (2.6%) were called active. 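Calls use total luciferase alone and ignore viability, so some active siRNAs may act by altering cell number.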 A number with no mark means an inactive call.

no.	target gene	PubChem SID	total luciferase, z-score	total luciferase, % of control	luciferase per cell, z-score	viable cells, % of control
1	NELFE	SID160719495	4.05 (active)	162	1.85	111
2	NELFE	SID160719496	1.18	105	2.21	65.8
3	NELFE	SID160719497	4.85 (active)	178	2.72	97.3
4	PGBD1	SID160752399	0.582	93.5	-0.00999	105
5	PGBD1	SID160752400	-0.664	68.7	-0.115	79.1
6	PGBD1	SID160752401	0.342	88.7	0.138	95.6
7	CKAP4	SID160729649	2.5	132	3.06	65.7
8	CKAP4	SID160729650	0.00754	82	0.341	83.8
9	CKAP4	SID160732307	-0.162	78.7	-0.785	108
10	CKAP4	SID160772027	0.312	88.1	0.173	94.1
11	CKAP4	SID160772029	-0.497	72	-0.385	89
12	CKAP4	SID160772030	-0.374	74.5	-0.104	85.5
13	RPL11	SID160716043	-2.74	27.4	-1.87	50.2
14	RPL11	SID160716044	-2.88	24.6	-1.18	37.6
15	RPL11	SID160716046	-2.52	31.8	-2.28	64.7

Hits, of those listed so far:
target gene	PubChem SID	total luciferase, z-score	total luciferase, % of control	luciferase per cell, z-score	viable cells, % of control
NELFE	SID160719495	4.05 (active)	162	1.85	111
NELFE	SID160719497	4.85 (active)	178	2.72	97.3

The listing continues.
no.	target gene	PubChem SID	total luciferase, z-score	total luciferase, % of control	luciferase per cell, z-score	viable cells, % of control
16	KATNAL1	SID160732006	-0.739	67.2	-0.512	85.9
17	KATNAL1	SID160751627	-0.259	76.7	-0.586	100
18	KATNAL1	SID160751628	-1.31	55.9	-0.957	80.3
19	ARL9	SID160757204	1.04	103	0.0941	112
20	ARL9	SID160757206	-0.118	79.5	0.642	75.1
21	ARL9	SID160757207	-0.014	81.6	-0.398	101
22	TMEM69	SID160740405	0.903	99.8	0.254	104
23	TMEM69	SID160740406	0.163	85.1	-0.539	110
24	TMEM69	SID160740408	2.81	138	1.76	96.7
